Experimental data: US20230236206A1, “PREDICTING A SEPSIS CONDITION” (PHARM-ANALYT LABOR GMBH, priority 2020, published 2023)

Assay: BM1 level in human urine by HPLC-MS/MS

Compound: C[C@@H](O)[C@H](NC(=O)Nc1ncnc2c1ncn2[C@@H]1O[C@H](CO)C(O)C1O)C(=O)O (stereo partly drawn) [BM1, N6-Carbamoylthreonyl-D-adenosine]
- Concentration in urine relative to plasma (healthy human subjects): 20-100 times
- Reference level in urine (healthy or non-septic (heart failure) reference population): 2500-4500 ng BM1/mg Creatinine
- Reference levels in urine of septic patients (septic patients): 5000-16000 ng/mg Creatinine
